{"source": "PubChem BioAssay AID1259254 (NCATS, 2017)", "aim": "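Gene knock-downs that lead to re-replication, shown by excess G2 DNA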 (primary screen)", "cell system": "human HCT116 colorectal cancer cells", "knock-down reagent": "single siRNA against human genes", "timing": "3 days", "detection": "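Imaged Hoechst DNA stain sorts each cell into a cycle phase by DNA amount; per plate, G2 fraction set to 0% for non-targeting and 100% for GMNN siRNA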", "scale": "G2 robust z-score and G2 cells, % of GMNN control: higher = more G2 cells, more excess DNA replication", "hit rule": "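An siRNA counts as active if its G2 robust z-score lies at least 5 MADs above the screen median; here such calls match roughly 38% of GMNN control or more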", "note": "In all, the deposit lists about 59,000 reagents; below is an unselected part. About 1,550 of all reagents (2.6%) were called active. 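G2 share is only a proxy for re-replication; each gene was hit by three separate siRNAs, and active genes were retested.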 Entries without a mark were called inactive. Reagents against one gene are numbered here. Further read-outs or replicates are left out here. The record does not give: the amount of reagent."}
{"Gene": "P2RX7", "reagent no.": 1, "G2 robust z-score": -0.503, "G2 cells, % of GMNN control": -0.574}
{"Gene": "P2RX7", "reagent no.": 2, "G2 robust z-score": 1.12, "G2 cells, % of GMNN control": 10.9}
{"Gene": "P2RX7", "reagent no.": 3, "G2 robust z-score": 0.22, "G2 cells, % of GMNN control": 4.51}
{"Gene": "GHSR", "reagent no.": 1, "G2 robust z-score": 1.73, "G2 cells, % of GMNN control": 15.1}
{"Gene": "GHSR", "reagent no.": 2, "G2 robust z-score": -0.392, "G2 cells, % of GMNN control": 0.211}
{"Gene": "GHSR", "reagent no.": 3, "G2 robust z-score": 3.98, "G2 cells, % of GMNN control": 31}
{"Gene": "PPP1R7", "reagent no.": 1, "G2 robust z-score": 1.18, "G2 cells, % of GMNN control": 11.3}
{"Gene": "PPP1R7", "reagent no.": 2, "G2 robust z-score": "7.11 (active)", "G2 cells, % of GMNN control": 53}
{"Gene": "PPP1R7", "reagent no.": 3, "G2 robust z-score": 2.32, "G2 cells, % of GMNN control": 19.3}

Copied from the list.
Entry for PPP1R7 #1 in “G2 cells, % of GMNN control”: 11.3
Result for P2RX7 #1 in “G2 cells, % of GMNN control”: -0.574

Continued:
{"Gene": "MFGE8", "reagent no.": 1, "G2 robust z-score": -0.531, "G2 cells, % of GMNN control": -0.767}
{"Gene": "MFGE8", "reagent no.": 2, "G2 robust z-score": -1.13, "G2 cells, % of GMNN control": -4.98}
{"Gene": "MFGE8", "reagent no.": 3, "G2 robust z-score": -0.646, "G2 cells, % of GMNN control": -1.57}
{"Gene": "ALDH6A1", "reagent no.": 1, "G2 robust z-score": 1.67, "G2 cells, % of GMNN control": 14.7}
{"Gene": "ALDH6A1", "reagent no.": 2, "G2 robust z-score": 2.97, "G2 cells, % of GMNN control": 23.8}
{"Gene": "ALDH6A1", "reagent no.": 3, "G2 robust z-score": -1.34, "G2 cells, % of GMNN control": -6.46}
{"Gene": "BCL2L2", "reagent no.": 1, "G2 robust z-score": -0.965, "G2 cells, % of GMNN control": -3.82}
{"Gene": "BCL2L2", "reagent no.": 2, "G2 robust z-score": 4.13, "G2 cells, % of GMNN control": 32}
{"Gene": "BCL2L2", "reagent no.": 3, "G2 robust z-score": 0.206, "G2 cells, % of GMNN control": 4.41}
